Binding data for two molecules are collected here from paper PMC5853926.

The chains behind the UniProt entries cited, without tags or fusion partners.
UniProt Q94AI6: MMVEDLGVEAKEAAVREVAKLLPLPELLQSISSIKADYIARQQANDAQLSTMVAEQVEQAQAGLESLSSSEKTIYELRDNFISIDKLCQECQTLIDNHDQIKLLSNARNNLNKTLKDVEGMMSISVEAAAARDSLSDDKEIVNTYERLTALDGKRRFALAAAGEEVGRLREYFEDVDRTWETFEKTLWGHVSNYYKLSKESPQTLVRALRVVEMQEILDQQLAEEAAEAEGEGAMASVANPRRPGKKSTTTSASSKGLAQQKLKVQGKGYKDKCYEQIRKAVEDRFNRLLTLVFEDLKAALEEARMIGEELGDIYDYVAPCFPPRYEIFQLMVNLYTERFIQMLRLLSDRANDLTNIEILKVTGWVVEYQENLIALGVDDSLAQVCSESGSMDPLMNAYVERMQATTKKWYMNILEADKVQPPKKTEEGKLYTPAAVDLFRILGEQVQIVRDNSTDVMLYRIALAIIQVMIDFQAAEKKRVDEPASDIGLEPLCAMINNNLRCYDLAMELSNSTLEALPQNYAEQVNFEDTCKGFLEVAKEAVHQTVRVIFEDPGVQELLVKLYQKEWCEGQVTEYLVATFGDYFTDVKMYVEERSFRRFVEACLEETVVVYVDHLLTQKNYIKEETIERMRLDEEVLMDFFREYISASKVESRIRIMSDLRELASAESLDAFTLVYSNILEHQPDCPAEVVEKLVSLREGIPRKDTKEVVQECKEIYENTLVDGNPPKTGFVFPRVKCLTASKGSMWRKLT

These are yes or no findings as the source states them, for the method shown. For some of these results: Binding seen in cells or lysates may run through a third protein. Some results given as binding are weak or reduced against the parent protein; the word gives no strength. For some of these results: Where a sequence is shown, tags or fusion partners need not be part of it.

One assay addresses T1, GFP–RIN4 (Arabidopsis) (UniProt Q8GYN5).
T1 sequence: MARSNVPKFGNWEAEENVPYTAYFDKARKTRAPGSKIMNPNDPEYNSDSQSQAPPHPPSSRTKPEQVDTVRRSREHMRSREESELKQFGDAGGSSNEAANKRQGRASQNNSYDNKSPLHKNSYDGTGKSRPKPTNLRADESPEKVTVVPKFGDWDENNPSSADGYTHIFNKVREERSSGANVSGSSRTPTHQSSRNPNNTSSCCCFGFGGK
The assay is described as follows: co-IP; proteins transiently co-expressed in N. benthamiana leaves; anti-GFP magnetic beads (µMACS GFP Isolation Kit), extraction buffer with 0.1% Triton X-100; EXO70B1 detected with anti-HA antibody.

The target in assay [1] is T2, EXO70B1 exocyst subunit, two-hybrid bait (Arabidopsis) (UniProt Q9FGH9).
T2 sequence: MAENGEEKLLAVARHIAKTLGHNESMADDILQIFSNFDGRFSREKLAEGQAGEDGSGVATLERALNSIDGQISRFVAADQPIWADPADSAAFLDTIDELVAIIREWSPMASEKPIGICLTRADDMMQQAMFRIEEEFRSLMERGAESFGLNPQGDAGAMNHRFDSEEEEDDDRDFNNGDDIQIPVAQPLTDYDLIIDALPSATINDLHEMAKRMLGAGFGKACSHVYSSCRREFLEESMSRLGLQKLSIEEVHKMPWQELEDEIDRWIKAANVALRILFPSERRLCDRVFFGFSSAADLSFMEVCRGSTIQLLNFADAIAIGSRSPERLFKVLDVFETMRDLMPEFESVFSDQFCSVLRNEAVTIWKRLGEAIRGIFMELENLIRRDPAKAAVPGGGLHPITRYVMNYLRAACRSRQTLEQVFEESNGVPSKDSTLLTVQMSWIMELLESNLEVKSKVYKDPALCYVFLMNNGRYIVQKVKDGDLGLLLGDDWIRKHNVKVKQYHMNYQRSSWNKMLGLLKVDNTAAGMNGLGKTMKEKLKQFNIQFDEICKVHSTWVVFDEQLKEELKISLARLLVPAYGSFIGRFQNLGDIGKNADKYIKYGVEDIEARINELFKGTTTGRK
In words: two-hybrid; RIN4 constructs and NOI6 in pGADT7 (prey), exocyst subunits in bait vectors; yeast plated in a 10x dilution series from OD600=0.1 on plates without leucine, tryptophan, histidine and adenine.

In assay [2] the target is SEC6 core exocyst subunit, two-hybrid bait (Arabidopsis) (UniProt Q94AI6). Described as above.
Assay [3] concerns the target T3, EXO70B2 exocyst subunit, two-hybrid bait (Arabidopsis) (UniProt Q9LMJ4).
T3 sequence: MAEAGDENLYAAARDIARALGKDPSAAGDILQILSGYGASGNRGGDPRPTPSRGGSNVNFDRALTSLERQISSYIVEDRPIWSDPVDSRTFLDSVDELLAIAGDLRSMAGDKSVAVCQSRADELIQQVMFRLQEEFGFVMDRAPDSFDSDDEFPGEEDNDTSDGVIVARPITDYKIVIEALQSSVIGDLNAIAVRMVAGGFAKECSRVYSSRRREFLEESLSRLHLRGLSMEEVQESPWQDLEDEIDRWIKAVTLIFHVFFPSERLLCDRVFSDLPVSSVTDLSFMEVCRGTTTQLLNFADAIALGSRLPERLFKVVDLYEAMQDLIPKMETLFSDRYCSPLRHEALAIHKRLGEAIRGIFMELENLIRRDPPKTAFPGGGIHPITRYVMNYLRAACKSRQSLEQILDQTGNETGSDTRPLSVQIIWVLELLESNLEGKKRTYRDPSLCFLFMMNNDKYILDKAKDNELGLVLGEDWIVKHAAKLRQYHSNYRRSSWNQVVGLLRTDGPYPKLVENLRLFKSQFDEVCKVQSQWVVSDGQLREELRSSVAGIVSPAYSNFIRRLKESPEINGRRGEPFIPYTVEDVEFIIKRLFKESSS
Described as above.

B1: HA-tagged EXO70B1 (protein, UniProt Q9FGH9 1-624)
chain: MAENGEEKLLAVARHIAKTLGHNESMADDILQIFSNFDGRFSREKLAEGQAGEDGSGVATLERALNSIDGQISRFVAADQPIWADPADSAAFLDTIDELVAIIREWSPMASEKPIGICLTRADDMMQQAMFRIEEEFRSLMERGAESFGLNPQGDAGAMNHRFDSEEEEDDDRDFNNGDDIQIPVAQPLTDYDLIIDALPSATINDLHEMAKRMLGAGFGKACSHVYSSCRREFLEESMSRLGLQKLSIEEVHKMPWQELEDEIDRWIKAANVALRILFPSERRLCDRVFFGFSSAADLSFMEVCRGSTIQLLNFADAIAIGSRSPERLFKVLDVFETMRDLMPEFESVFSDQFCSVLRNEAVTIWKRLGEAIRGIFMELENLIRRDPAKAAVPGGGLHPITRYVMNYLRAACRSRQTLEQVFEESNGVPSKDSTLLTVQMSWIMELLESNLEVKSKVYKDPALCYVFLMNNGRYIVQKVKDGDLGLLLGDDWIRKHNVKVKQYHMNYQRSSWNKMLGLLKVDNTAAGMNGLGKTMKEKLKQFNIQFDEICKVHSTWVVFDEQLKEELKISLARLLVPAYGSFIGRFQNLGDIGKNADKYIKYGVEDIEARINELFKGTTTGRK
Consider B1, for which the binding result in the assay with GFP–RIN4 (Arabidopsis) is “binds”.

B2: RPM1 … PROTEIN 4 (RIN4), full-length, two-hybrid prey (protein, UniProt Q8GYN5 1-211)
chain: MARSNVPKFGNWEAEENVPYTAYFDKARKTRAPGSKIMNPNDPEYNSDSQSQAPPHPPSSRTKPEQVDTVRRSREHMRSREESELKQFGDAGGSSNEAANKRQGRASQNNSYDNKSPLHKNSYDGTGKSRPKPTNLRADESPEKVTVVPKFGDWDENNPSSADGYTHIFNKVREERSSGANVSGSSRTPTHQSSRNPNNTSSCCCFGFGGK
In the case of B2, the binding entry in assay [1] is “binds”; in assay [2], “no binding”; in assay [3], “binds weakly”.
